Consider 4 targets from the supplement of paper PMC6411743.

Amino acid sequences for entries named in this document (tags omitted). A change or cut given only in a name is not applied to a line headed by its entry.
UniProt Q8N954: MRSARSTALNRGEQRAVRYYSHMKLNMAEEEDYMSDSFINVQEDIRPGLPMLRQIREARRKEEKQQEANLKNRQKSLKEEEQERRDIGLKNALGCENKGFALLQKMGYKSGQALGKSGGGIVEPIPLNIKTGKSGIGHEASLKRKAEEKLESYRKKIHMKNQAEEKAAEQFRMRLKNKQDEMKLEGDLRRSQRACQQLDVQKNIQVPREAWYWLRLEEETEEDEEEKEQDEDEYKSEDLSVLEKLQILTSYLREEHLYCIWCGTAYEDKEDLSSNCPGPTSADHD
UniProt O95218: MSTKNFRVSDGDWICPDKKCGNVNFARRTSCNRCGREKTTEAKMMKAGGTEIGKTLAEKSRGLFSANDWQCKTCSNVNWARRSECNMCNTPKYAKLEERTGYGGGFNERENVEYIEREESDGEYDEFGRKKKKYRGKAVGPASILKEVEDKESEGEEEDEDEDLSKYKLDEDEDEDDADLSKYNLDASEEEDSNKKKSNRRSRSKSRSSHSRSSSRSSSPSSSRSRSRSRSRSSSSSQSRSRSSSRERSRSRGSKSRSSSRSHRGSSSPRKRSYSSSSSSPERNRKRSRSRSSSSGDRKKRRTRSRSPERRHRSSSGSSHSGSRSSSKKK
UniProt Q5RL73: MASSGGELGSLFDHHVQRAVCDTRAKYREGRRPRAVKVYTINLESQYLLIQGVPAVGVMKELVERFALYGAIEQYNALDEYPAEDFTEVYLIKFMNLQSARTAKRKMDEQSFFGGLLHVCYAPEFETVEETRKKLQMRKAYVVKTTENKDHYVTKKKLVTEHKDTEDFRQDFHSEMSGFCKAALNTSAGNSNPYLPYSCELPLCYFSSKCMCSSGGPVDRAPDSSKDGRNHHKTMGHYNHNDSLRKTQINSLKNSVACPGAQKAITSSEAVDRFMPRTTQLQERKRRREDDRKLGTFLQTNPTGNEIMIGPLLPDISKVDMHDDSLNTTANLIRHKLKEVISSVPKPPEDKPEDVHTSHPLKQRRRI
UniProt O75818: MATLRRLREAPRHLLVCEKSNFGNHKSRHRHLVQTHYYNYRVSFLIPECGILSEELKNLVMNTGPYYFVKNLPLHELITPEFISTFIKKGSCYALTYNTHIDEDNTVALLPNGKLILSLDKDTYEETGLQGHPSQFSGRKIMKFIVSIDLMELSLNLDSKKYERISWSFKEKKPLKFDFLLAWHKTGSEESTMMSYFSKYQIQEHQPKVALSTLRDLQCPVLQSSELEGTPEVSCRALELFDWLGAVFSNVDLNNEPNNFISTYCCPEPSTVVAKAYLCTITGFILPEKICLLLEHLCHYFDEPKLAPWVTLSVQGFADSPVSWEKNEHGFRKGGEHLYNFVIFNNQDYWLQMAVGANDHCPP

Compound in this test: Nc1ncnc2c1ncn2[C@@H]1O[C@H](COP(=O)(O)OP(=O)(O)OP(=O)(O)O)[C@@H](O)[C@H]1O [adenosine triphosphate]
The experiment in a line: NP40-soluble protein abundance relative to vehicle (solubility fold change) (ratio); higher = more soluble protein in presence of ATP. Put shortly:
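Each value is a fold change relative to the detergent-processed vehicle, calculated per replicate from vsn-normalised intensities. Jurkat crude lysate received eight concentrations (0.1 to 10 mM) for 10 min at room temperature and 3 min at 37 °C, then was solubilised in 0.8% NP40 with benzonase (60 min, 4 °C). The ultracentrifuged supernatant was TMT-labelled and run by LC-MS/MS in three independent experiments.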

± gives the standard deviation of the averaged measurements. The entries are a selection whose mix differs from that of the whole data set.

For the target A0A0A0MSF9|Q8N954 (UniProt Q8N954), the NP40-soluble protein abundance is, setting by setting: (concentration: 1mM) 0.952 ± 0.081; (concentration: 2mM) 0.944 ± 0.078; (concentration: 4mM) 0.975 ± 0.077; (concentration: 6mM) 1.05 ± 0.11; (concentration: 8mM) 1.09 ± 0.049; (concentration: 10mM) 1.14 ± 0.044.

Turning to “A0A0C4DGV5|O95218 and related entries (UniProt O95218)”, the NP40-soluble protein abundance (concentration: 1mM) is 0.903 ± 0.061; the NP40-soluble protein abundance (concentration: 2mM) amounted to 0.864 ± 0.018; the NP40-soluble protein abundance (concentration: 4mM) is 0.768 ± 0.028; the NP40-soluble protein abundance (concentration: 6mM) came to 0.76 ± 0.052; the NP40-soluble protein abundance (concentration: 8mM) is 0.702 ± 0.054; the NP40-soluble protein abundance (concentration: 10mM) was found to be 0.665 ± 0.015.

As to “A0A0C4DGT5|Q5RL73 and related entries (UniProt Q5RL73)”, the NP40-soluble protein abundance (concentration: 1mM) was 0.958 ± 0.052; the NP40-soluble protein abundance (concentration: 2mM) was 0.965 ± 0.11; the NP40-soluble protein abundance (concentration: 4mM) came to 1.01 ± 0.083; the NP40-soluble protein abundance (concentration: 6mM) amounted to 0.997 ± 0.089; the NP40-soluble protein abundance (concentration: 8mM) came out at 0.957 ± 0.13; the NP40-soluble protein abundance (concentration: 10mM) worked out at 1.02 ± 0.061.

Turning to “A0A087X1N3|O75818 and related entries (UniProt O75818)”, the NP40-soluble protein abundance was found to be 1.12 ± 0.085 (concentration: 1mM); 1.06 ± 0.052 (concentration: 2mM); 1.08 ± 0.039 (concentration: 4mM); 1.07 ± 0.026 (concentration: 6mM); 1.15 ± 0.037 (concentration: 8mM); 1.14 ± 0.042 (concentration: 10mM).
